Hit rate of the full screen: of about 300,000 compounds, about 5,400 (1.8%) were called active. Inconclusive means that the source gave no clear call. Such entries were picked first, then a sample of the others. The call rests on the fitted dose curve; tested in HEK293 cells. Where the call is inconclusive, the potency comes from a doubtful curve fit.
Test: qHTS for inhibitors of binding or entry into cells for Marburg Virus
Conditions: Marburg virus pseudotyped entry inhibition, cell reporter; activity change, negative = inhibition: at 37.8 µM (top of the series) unless noted
On the % scale 0 is the no-effect control and ±100 the full control effect; potency means the concentration at half of the fitted maximal effect.

SMILES	activity change, negative = inhibition	Potency
O=c1[nH]c(SCc2ccccc2Cl)nc2c1CCCC2	inactive: -2.9%	–
OCC1C2c3ccccc3C(c3ccccc32)C1CO (centres undefined)	–	inconclusive: 0.316 µM [inhibitor, full curve, poor fit]
COc1cc(OC)cc(C(=O)N2CCN(C(=O)COc3ccccc3)CC2)c1	inactive: 4.94% [at 46.1 µM]	–
CN(C)CCCC1(O)c2ccccc2C=Cc2ccccc21	–	inconclusive: 6.51 µM [inhibitor, partial curve, poor fit]
COc1ccc(NC(=O)Cc2coc3cc(C)ccc23)cn1	inactive: 4.24% [at 46.1 µM]	–
COC(=O)[C@@]1(Cc2ccc(F)cc2)[C@H]2c3cc(C(=O)N4CCCC4)n(Cc4ccc(C(F)(F)F)nc4)c3C[C@H]2CN1C(=O)c1ccccc1	–	inconclusive: 16.4 µM [inhibitor, partial curve]
C=CCN1C=CC(=CC=C(C#N)C#N)C=C1	inactive: -3.78%	–
CC(=O)c1ccc2c(c1)CC(C)C(=O)N2C (centres undefined)	inactive: 5.3%	–
CCN1CCN(CCNC(=O)CSCc2nc(-c3ccc(OC)c(OC)c3)oc2C)CC1	inactive: -16.4% [at 46.1 µM]	–
O=[N+]([O-])c1ccc(Cl)c(/C=N/N2CCN(C3c4ccccc4-c4ccccc43)CC2)c1	–	inconclusive: 12.6 µM [activator, single point]
COc1ccccc1NC(=O)C1=C(C)Nc2nc(SCc3ccccc3Cl)nn2C1c1ccccn1 (centres undefined)	inactive: 8.87% [at 46.1 µM]	–
CCCCCCCCCCCCCCC/C=C/[C@@H](O)[C@H](NC(=O)CCCCCCCCCCCCC)OC (tested in a mixture with another compound)	–	inconclusive: 11.2 µM [inhibitor, single point]
CN(C)c1ccc(/C=C/c2noc(-c3ccccc3O)n2)cc1	–	inconclusive: 3.98 µM [activator, full curve, poor fit]
COc1cccc(/C=N/Nc2nc(N3CCCC3)nc(N3CCCC3)n2)c1O	–	active: 25.9 µM
Cc1cccc(OCC(=O)N(Cc2ccc(C(C)(C)C)cc2)Cc2ccco2)c1	inactive: -2.89% [at 46.1 µM]	–
CC(=O)c1cccc(S(=O)(=O)N2CCN(c3nc4cc(C)cc(C)c4cc3C#N)CC2)c1	–	inconclusive: 35.5 µM [inhibitor, single point]
CCCSc1nsc(NC(=O)C(c2ccccc2)c2ccccc2)n1	–	inconclusive: 7.94 µM [inhibitor, partial curve, poor fit]
COc1ccc(C2C(C(=O)Nc3cccnc3)=C(C)Nc3nc(-c4ccccc4)nn32)cc1OC (centres undefined)	inconclusive: 13.3% [activator] [at 46.1 µM]	–
COc1ccc(CNC(=O)c2ccc(N3CCCC3=O)cc2)cc1	–	inconclusive: 13 µM [activator, partial curve, poor fit]

Two compounds drawn at random from those above:
SMILES	activity change, negative = inhibition	Potency
COc1ccc(NC(=O)Cc2coc3cc(C)ccc23)cn1	inactive: 4.24% [at 46.1 µM]	–
COc1ccc(CNC(=O)c2ccc(N3CCCC3=O)cc2)cc1	–	inconclusive: 13 µM [activator, partial curve, poor fit]

From PubChem BioAssay AID540276 (National Center for Advancing Translational Sciences (NCATS), 2011)
